Test results published in the supplement of paper PMC10849652.
Some of the results follow.

By UniProt entry, the sequences of proteins in these tests, tags left out. Where a name states a change or a piece, a line headed by the entry shows the natural chain unless it says otherwise.
UniProt P29692: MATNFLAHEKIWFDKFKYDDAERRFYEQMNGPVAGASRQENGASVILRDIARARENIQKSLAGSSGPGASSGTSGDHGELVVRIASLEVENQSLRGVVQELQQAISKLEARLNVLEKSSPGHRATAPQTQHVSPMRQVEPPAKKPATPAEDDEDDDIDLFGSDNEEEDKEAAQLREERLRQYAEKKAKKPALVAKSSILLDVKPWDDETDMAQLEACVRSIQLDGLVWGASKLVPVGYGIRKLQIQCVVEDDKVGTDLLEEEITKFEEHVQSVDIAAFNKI
UniProt Q99848: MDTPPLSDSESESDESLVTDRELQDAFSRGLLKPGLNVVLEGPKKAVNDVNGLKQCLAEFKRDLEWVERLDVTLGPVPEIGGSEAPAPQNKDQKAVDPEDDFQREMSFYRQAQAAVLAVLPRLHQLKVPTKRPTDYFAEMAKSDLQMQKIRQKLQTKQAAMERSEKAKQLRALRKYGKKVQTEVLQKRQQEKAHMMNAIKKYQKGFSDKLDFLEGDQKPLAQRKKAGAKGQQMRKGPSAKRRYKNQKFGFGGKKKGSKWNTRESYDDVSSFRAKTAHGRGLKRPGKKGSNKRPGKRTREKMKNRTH
UniProt Q56P03: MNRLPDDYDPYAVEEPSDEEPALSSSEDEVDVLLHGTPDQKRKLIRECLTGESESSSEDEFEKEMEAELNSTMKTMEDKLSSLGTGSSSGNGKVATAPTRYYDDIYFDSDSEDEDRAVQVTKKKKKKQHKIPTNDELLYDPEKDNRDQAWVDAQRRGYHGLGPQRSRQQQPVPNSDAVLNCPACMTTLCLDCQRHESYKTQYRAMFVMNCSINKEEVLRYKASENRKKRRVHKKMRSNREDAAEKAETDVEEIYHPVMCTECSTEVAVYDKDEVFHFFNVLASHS
UniProt P60981: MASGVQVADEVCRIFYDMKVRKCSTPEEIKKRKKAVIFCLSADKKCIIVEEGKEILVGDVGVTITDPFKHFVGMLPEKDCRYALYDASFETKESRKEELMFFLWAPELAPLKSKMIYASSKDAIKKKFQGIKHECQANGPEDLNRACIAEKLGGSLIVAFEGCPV
UniProt Q8N9N8: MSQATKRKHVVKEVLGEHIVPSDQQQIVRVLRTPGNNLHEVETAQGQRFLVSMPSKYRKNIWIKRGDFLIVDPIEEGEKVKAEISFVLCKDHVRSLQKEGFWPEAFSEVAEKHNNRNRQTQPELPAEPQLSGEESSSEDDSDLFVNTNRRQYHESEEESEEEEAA
UniProt P63172, whole entry, looked up: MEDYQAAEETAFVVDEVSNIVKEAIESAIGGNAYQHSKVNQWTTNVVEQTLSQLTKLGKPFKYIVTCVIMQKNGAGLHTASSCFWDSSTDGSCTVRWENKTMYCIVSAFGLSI
UniProt P51452: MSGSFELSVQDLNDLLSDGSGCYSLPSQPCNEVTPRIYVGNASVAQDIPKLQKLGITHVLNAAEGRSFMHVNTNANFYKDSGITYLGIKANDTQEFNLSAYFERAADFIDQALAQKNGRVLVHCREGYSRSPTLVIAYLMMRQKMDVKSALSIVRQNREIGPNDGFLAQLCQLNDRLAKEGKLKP
UniProt P24534: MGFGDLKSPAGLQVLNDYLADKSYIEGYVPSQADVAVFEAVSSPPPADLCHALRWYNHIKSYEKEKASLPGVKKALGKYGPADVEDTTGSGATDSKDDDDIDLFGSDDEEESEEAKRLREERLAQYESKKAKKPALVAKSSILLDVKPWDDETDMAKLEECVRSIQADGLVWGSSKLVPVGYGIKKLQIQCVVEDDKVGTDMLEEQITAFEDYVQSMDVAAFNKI
UniProt Q96FJ2, whole entry, looked up: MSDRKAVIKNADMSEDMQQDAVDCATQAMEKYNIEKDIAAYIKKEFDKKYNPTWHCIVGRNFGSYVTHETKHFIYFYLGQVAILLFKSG
UniProt Q6P1R4: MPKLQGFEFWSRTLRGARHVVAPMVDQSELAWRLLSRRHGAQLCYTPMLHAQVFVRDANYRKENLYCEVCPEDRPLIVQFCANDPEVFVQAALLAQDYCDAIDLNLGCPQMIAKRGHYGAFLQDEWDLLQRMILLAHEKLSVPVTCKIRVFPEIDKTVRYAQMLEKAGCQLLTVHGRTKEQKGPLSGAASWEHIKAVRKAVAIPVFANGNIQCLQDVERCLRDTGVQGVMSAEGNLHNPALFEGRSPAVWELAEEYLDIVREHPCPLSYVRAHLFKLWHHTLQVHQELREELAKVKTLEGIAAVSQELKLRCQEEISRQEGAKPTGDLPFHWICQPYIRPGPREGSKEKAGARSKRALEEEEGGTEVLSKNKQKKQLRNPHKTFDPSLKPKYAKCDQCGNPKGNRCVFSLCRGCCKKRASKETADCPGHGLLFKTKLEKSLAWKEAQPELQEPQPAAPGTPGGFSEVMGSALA
UniProt O60739, whole entry, looked up: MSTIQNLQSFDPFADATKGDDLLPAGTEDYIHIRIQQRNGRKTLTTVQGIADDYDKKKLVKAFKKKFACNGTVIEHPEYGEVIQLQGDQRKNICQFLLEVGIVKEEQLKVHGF
UniProt Q15075: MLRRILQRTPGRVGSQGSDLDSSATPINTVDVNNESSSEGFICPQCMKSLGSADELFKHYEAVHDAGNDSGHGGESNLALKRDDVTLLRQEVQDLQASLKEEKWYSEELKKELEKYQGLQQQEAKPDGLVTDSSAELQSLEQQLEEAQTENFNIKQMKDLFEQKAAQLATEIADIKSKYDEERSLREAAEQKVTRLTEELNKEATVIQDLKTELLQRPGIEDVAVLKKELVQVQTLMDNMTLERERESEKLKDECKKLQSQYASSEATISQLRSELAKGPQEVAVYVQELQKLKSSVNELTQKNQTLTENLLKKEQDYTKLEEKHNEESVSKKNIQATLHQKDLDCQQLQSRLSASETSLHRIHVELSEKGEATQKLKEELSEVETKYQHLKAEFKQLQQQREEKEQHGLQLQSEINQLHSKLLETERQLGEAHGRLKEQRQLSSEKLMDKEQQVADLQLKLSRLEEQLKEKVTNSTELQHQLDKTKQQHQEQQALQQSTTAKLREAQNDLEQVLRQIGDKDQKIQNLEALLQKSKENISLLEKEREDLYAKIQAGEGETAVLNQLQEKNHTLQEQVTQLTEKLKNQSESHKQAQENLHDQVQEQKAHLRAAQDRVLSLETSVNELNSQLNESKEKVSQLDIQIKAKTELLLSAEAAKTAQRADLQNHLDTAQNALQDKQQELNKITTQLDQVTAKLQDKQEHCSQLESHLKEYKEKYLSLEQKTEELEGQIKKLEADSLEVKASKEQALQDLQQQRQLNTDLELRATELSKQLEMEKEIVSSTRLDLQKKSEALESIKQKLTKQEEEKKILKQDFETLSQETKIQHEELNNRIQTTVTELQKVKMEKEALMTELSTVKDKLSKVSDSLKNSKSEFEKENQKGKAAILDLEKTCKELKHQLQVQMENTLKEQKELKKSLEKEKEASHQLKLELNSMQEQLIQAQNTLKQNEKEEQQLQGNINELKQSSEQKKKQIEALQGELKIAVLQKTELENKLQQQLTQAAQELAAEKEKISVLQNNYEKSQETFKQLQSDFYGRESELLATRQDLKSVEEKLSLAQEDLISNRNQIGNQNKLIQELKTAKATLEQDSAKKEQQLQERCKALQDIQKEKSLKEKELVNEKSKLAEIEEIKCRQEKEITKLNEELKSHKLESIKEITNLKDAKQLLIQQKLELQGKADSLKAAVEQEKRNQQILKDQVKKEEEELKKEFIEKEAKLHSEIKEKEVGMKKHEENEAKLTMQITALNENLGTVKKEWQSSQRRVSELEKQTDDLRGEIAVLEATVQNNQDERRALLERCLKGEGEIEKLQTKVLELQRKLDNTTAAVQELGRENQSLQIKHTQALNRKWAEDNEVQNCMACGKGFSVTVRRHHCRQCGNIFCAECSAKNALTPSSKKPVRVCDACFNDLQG
UniProt Q9NX74: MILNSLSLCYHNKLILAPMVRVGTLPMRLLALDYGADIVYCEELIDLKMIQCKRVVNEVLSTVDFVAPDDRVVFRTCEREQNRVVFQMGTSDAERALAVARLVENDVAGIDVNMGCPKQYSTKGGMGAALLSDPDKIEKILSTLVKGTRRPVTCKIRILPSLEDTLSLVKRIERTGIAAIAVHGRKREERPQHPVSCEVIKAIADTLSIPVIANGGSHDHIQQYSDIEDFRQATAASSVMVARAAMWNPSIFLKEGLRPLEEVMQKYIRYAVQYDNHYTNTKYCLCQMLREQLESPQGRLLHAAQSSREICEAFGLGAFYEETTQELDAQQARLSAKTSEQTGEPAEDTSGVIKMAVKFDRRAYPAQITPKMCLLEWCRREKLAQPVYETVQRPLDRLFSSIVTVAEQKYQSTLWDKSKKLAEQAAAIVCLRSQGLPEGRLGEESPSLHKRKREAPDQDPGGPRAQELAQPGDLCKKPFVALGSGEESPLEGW
UniProt Q14126: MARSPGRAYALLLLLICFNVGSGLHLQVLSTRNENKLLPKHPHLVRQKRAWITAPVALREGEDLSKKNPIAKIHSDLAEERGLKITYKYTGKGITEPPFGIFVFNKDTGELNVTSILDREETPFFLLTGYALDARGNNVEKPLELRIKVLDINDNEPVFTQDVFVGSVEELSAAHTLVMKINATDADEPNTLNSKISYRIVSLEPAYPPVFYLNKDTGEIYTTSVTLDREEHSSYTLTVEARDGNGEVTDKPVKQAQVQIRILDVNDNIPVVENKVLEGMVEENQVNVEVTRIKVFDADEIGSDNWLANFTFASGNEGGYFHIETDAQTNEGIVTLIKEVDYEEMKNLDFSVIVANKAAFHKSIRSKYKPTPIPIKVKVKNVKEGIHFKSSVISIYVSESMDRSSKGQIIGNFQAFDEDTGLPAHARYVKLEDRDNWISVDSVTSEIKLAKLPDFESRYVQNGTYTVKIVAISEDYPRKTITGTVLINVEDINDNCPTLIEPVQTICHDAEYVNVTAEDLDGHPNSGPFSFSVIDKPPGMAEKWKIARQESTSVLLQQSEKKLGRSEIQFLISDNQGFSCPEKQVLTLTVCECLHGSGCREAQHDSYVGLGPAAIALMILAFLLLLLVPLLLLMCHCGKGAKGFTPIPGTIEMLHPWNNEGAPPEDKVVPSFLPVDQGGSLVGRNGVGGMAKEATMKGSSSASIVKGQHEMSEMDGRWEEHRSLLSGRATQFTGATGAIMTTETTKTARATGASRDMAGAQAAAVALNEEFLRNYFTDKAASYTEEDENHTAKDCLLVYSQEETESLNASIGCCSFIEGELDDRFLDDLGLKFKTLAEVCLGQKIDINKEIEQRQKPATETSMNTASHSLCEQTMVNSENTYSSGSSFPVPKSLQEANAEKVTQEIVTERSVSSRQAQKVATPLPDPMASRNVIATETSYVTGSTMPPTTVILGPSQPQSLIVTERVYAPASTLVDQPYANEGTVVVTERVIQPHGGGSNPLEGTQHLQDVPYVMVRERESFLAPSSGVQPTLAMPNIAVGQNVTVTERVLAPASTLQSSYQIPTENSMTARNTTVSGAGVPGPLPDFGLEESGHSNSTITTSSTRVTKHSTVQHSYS
UniProt O00716: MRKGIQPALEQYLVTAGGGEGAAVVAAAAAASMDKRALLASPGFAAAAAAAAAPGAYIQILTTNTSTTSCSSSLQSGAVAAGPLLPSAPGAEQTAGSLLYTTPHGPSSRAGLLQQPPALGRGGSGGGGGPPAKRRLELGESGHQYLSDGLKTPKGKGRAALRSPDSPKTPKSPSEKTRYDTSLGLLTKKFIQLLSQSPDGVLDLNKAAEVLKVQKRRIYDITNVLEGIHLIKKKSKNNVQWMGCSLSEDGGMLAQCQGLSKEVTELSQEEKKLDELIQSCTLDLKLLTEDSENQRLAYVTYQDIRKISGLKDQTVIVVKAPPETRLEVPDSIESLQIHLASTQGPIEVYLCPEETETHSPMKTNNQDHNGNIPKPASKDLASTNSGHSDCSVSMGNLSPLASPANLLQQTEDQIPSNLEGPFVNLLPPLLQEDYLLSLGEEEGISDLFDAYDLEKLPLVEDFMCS
UniProt Q96G46: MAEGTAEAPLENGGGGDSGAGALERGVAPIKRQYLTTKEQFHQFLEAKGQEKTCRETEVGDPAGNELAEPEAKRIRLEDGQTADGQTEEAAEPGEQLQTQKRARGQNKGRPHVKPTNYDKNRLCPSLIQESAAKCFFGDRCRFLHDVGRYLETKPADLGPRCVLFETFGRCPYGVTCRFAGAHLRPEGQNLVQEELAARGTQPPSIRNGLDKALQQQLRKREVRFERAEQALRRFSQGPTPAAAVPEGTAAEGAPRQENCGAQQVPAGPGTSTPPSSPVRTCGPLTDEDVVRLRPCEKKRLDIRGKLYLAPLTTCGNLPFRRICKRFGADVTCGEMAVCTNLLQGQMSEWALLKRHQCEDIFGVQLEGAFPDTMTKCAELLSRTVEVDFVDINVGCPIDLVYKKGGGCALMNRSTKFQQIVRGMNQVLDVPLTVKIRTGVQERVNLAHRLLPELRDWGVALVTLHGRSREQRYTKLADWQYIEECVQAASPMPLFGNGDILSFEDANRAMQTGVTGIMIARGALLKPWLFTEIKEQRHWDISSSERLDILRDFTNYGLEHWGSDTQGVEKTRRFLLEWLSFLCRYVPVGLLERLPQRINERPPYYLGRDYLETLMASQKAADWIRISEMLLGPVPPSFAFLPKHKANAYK

compound: CC(C)(O)CC(=O)NCCn1ccc2ncnc(Nc3ccc(Oc4cccc(C(F)(F)F)c4)c(Cl)c3)c21; experiment: log2 fold change, soluble protein after heating vs DMSO (PISA); higher = thermal stabilisation; K562 lysate, 10 uM; active = over 0.2 and 3.5 SD of the protein, either way, in both replicates (recomputed)
In short: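 Quantification was by TMTpro 16plex LC-MS/MS with equalised channel sums, applied to the supernatant after 21,000xg for 90 min. Samples were crude K562 extract at 1 mg/mL protein in PBS pH 7.4 with 1 mM MgCl2, treated with 10 μM compound for 30 min, heated for 3 min across 48°C-58°C, pooled and brought to 0.5% NP-40 at 4°C. Values are log-two fold changes in thermal stability relative to solvent controls, from duplicates.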

log2 fold change, inactive:
EEF1D isoform 2 (UniProt P29692) -0.032
DSN1 (UniProt Q9H410) 0.001
EHBP1L1 (UniProt Q8N3D4) -0.007
EBNA1BP2 (UniProt Q99848) -0.036
EAPP (UniProt Q56P03) -0.059
DSTN (UniProt P60981) 0.038
EIF1AD (UniProt Q8N9N8) -0.04
EHD1 (UniProt Q9H4M9) -0.013
EEF1G isoform 2 (UniProt P26641) 0.012
ECT2 (UniProt Q9H8V3) 0.023
EHBP1 isoform 2 (UniProt Q8NDI1) -0.047
DYNLT1 (UniProt P63172) -0.107
DUSP3 (UniProt P51452) -0.021
EEF1A1, A0A087WVQ9 0.019
DPH5 isoform 5 (UniProt Q9H2P9) 0
DUT (UniProt P33316) 0.002
EEF1B2 (UniProt P24534) 0.001
DYNLL2 (UniProt Q96FJ2) -0.031
EDRF1 (UniProt Q3B7T1) -0.067
DUS1L (UniProt Q6P1R4) 0.001
E4F1 (UniProt Q66K89) -0.081
DPF2 (UniProt Q92785) -0.01
DPH2 (UniProt Q9BQC3) -0.026
EIF1B (UniProt O60739) -0.016
EEA1 (UniProt Q15075) -0.025
DUS2 (UniProt Q9NX74) 0.097
ECPAS (UniProt Q5VYK3) -0.025
DYM (UniProt Q7RTS9) -0.041
EI24 (UniProt O14681) 0
DSG2 (UniProt Q14126) 0.063
E2F3 (UniProt O00716) -0.059
DRG1 (UniProt Q9Y295) 0.007
ECE1 (UniProt P42892) -0.028
DUS3L (UniProt Q96G46) -0.034
EHMT2 (UniProt A2ABF8) -0.019
EEF1AKMT2, A0A494BZY7 -0.059
DPP8 (UniProt Q6V1X1) -0.069
DYNC1LI1 (UniProt Q9Y6G9) -0.009
DPY19L1, A0A1B0GW05 0

Reprinted at random: 2 records from the list
log2 fold change, inactive:
DRG1 (UniProt Q9Y295) 0.007
DUS2 (UniProt Q9NX74) 0.097
